Laboratory results reported in US12551526B2, “Enterically delivered bitter oligopeptides for the treatment for type 2 diabetes” (Cedars-Sinai Medical Center, priority 2015, dated 2026).
At least one structure is not confirmed: it was looked up by name or label, or the drawing left a doubt.

Test system: HuTu-80 cells
Experiment: GLP-1 release from cultured HuTu-80 cells (Luminex assay)
Assay type: cell-based, human
Protocol: HuTu-80 cells were untreated (zero-time) or treated with vehicle and various phytochemicals at indicated concentrations for 30 min. […] Values are mean±SE, N=3, *P<0.05, **P<0.01
HuTu-80 cells (HTB-40, ATCC) were propagated in Dulbecco's modified Eagle's medium (DMEM) containing 4 mM L-glutamine, 1.5 g/L sodium bicarbonate, and 4.5 g/L glucose, supplemented with 10% FBS and PSG antibiotic mix and maintained at 10% CO2 and 37° C. For experiments, these cells were seeded in 6-well plates or […] tissue culture dishes, propagated to confluence (5-7 days) and arrested in serum-free media overnight prior to treatments. Prior to the experiment, spent media was replaced with OPTI-MEM (Gibco, Life Technologies, Grand Island, NY) containing Halt Protease and Phosphatase Inhibitor cocktail (Thermo Fisher Scientific, Rockford, IL) and individual wells dosed for 30 min. […] The media from cells was collected and frozen for subsequent peptide hormone release measurement using a Luminex MAGPIX metabolism multiplexing assay kit (HMHMAG-34K) following the manufacturer's instructions.

## CCCC(=O)O [butyrate]
HuTu-80 cells treated 30 min, GLP-1 in conditioned media
  GLP-1 release: GLP-1 secretory response was also observed
HuTu-80 cells, FIG. 9B, PTC and PTU 10 mM
  GLP-1 release compared with TAS2R38 ligands PTC and PTU: stimulate GLP-1 release comparable to that by TAS2R38 ligands PTC and PTU
